Measurements taken from patent publication US20190112603A1.
No constants are given. Whether binding was seen depends on the method and setting. In cells and extracts the contact can be indirect. Some results given as binding are weak or reduced against the parent protein; the word gives no strength.

By UniProt entry, the sequences of proteins in these tests, tags left out. Where a name states a change or a piece, a line headed by the entry shows the natural chain unless it says otherwise. Chains listed by the source or under a name are the forms on record and can include a tag or linker.
UniProt P40337: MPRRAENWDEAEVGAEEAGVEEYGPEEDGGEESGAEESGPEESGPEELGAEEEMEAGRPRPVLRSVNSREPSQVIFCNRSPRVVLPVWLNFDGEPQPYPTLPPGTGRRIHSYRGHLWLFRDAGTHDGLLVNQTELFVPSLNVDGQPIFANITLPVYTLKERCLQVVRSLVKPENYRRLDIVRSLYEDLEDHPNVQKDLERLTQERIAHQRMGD
HA-pVHL-RRR mutant (P40337, form named): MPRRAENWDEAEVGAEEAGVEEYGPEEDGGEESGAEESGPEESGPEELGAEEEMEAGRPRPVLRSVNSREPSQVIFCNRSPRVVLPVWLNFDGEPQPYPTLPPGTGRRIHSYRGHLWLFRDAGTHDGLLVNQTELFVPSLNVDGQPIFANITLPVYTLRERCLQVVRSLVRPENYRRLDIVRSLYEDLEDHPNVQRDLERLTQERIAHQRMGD
UniProt O00762: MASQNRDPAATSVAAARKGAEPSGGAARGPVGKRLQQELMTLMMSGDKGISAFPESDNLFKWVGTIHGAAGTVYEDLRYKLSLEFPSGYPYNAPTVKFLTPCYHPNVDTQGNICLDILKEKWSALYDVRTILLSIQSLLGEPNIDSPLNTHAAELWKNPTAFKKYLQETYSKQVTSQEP

Tests used:
HA-pVHL-WT [1] = target: HA-pVHL-WT (UniProt P40337); test: co-immunoprecipitation (HA-tag antibody) from co-transfected HEK cells, Western blot for UBE2C
HA-pVHL-RRR mutant [2] = target: HA-pVHL-RRR mutant (UniProt P40337); test: as above
HA-pVHL-WT [3] = target: HA-pVHL-WT (UniProt P40337); test: summary of the co-immunoprecipitation results
HA-pVHL-WT [4] = target: HA-pVHL-WT (UniProt P40337); test: co-immunoprecipitation / co-transfection in HEK cells
HA-pVHL-RRR mutant [5] = target: HA-pVHL-RRR mutant (UniProt P40337); test: summary of the co-immunoprecipitation results with ubiquitination site mutants

Measured: binding

UBE2C (ubiquitin E2 ligase-C), overexpressed from myc-UBE2C plasmid in HEK cells (from UniProt O00762 1-179) (enzyme)
binds: all assays above
